About 1,300 (0.54%) of roughly 240,000 compounds were called active. This list was built around the results that the source calls inconclusive (neither active nor inactive); the mix of calls is not that of the screen. The call rests on the fitted dose curve; in most records, active means well fitted inhibition curve with a large enough effect; inconclusive means small, poorly fitted or top-dose-only effect; inactive means flat fitted curve, though single readings scatter. A potency beside an inconclusive call is a rough fit, not a confirmed value.
Molecular target: ATP-dependent DNA helicase Q1 (Homo sapiens) (UniProt P46063)
Experiment: qHTS Assay for Inhibitors of RecQ-Like Dna Helicase 1 (RECQ1); further: nearly all actives have a fitted effect of over 30% in size
Conditions: RECQ1 DNA unwinding, red fluorescence kinetic read; series mostly up to 57.3 µM
Description: Survival of cells and the faithful propagation of the genome depend on elaborate mechanisms of detecting and repairing DNA damage. Treatment of advanced cancer relies on radiation therapy or chemotherapy, which kill cancer cells by causing extensive DNA damage. It is often found, that cancer cells develop resistance to therapy through enhanced activity of DNA repair functions; this has led to an increased interest in developing drugs that interfere with DNA repair, which could sensitize cancer cells to conventional therapy.
This validation qHTS assay pertains to human RECQ1, which is important in resolving abnormal DNA structures formed during replication or homologous recombination. Shutting down the expression of RECQ1 leads to chromosomal instability and higher radiation sensitivity in cultured cells.
The validation assay was a fluorescence quenching based kinetic qHTS for RECQ1 Helicase DNA unwinding. The activity was measured as ATP-dependent separation of a 20-bp DNA duplex extended by 30-nt single-stranded tails (forked duplex). The forked DNA substrate was tagged with rhodamine fluorophore (carboxytetramethyl rhodamine, TAMRA) and BHQ-2 (Black Hole Quencher 2) dark quencher. Strand separation results in an increase in the fluorescence of TAMRA (excitation 525 nm, emission 598 nm). […]
Potency means the concentration at half of the fitted maximal effect.

Sequences of proteins named here, by UniProt entry; tags and fusion partners are left off. A change or cut given only in a name is not applied to a line headed by its entry.
UniProt P46063: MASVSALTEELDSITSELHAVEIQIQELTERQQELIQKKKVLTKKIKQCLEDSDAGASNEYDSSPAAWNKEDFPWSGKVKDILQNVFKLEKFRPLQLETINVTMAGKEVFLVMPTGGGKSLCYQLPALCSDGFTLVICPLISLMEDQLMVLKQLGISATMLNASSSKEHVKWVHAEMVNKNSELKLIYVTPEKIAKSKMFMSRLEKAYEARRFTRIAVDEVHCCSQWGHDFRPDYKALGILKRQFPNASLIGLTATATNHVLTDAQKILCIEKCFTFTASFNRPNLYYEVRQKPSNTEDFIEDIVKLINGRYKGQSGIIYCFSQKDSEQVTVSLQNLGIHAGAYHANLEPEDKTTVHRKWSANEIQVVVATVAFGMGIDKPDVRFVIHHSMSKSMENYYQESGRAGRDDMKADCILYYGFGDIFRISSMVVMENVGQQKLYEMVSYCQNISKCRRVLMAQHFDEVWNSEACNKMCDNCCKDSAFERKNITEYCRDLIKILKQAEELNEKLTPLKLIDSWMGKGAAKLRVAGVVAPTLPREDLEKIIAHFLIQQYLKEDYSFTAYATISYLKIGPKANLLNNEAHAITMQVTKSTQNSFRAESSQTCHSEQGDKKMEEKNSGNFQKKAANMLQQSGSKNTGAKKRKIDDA

Row | SMILES | Potency
1 | Cc1ccccc1N/N=C/c1sc(=O)n(Cc2cccc(C(=O)O)c2)c1Cl | inconclusive: 22.4 µM [inhibitor, partial curve, poor fit]
2 | O=C(O)COc1ccccc1/C=N/NC(=O)CSc1nnc(SCc2cccc3ccccc23)s1 | inconclusive: 35.5 µM [inhibitor, single point]

From PubChem BioAssay AID2549 (National Center for Advancing Translational Sciences (NCATS), 2010)
